Data set [1] in a line: general procedure: Fmoc solid-phase peptide synthesis; SEA resin (0.175 mmol/g); Novasyn TGR; PAL-ChemMatrix; HBTU/DIEA. The conditions noted are these: for step yield: late stage modification step.
Data set [2] can be described thus: general procedure: Fmoc solid-phase peptide synthesis; Novasyn TGR; HBTU/DIEA. The note with it: whole synthesis, scale 0.5 mmol.
Data set [3] can be described thus: general procedure: Fmoc solid-phase peptide synthesis; SEA resin; HBTU/DIEA. The conditions noted are these: whole synthesis, scale 0.25 mmol.
Where [4] appears, read: whole synthesis, scale of the general procedure 0.1 mmol, 0.25 mmol, 0.5 mmol.
Setting [5] is: whole synthesis, scale 0.25 mmol.

Plain letter strings leave the end groups untold.

As for H-ILKEPVHGY-N(CH2CH2SH)2, the “crude HPLC purity” value in data set [1] (setting [4]) is 88%.
With H-ILKEPVHGA-S(CH2)2COOH, the step yield in data set [1] was 47.4%.
For the substance H-ILKEPVHGA-N(CH2CH2SH)2, in data set [1] (setting [4]), the “crude HPLC purity” value was 83%, the “final HPLC purity” value is 97% and the isolated yield is given as 31%.
In data set [2], RNPRGEEGGPWCFTSNPEVRYEVCDIPQCSE came in with an isolated mass of 272 mg and an isolated yield of 13%.
As for H—C(StBu)HHLEPGG-SEAoff, the step yield in data set [1] is 33%. Besides, in data set [1] (setting [5]), the crude mass turned out to be 132.6 mg and the crude yield was 38%.
For the substance H-ILKEPVHGG-N(CH2CH2SH)2, in data set [1] (setting [4]), the “crude HPLC purity” value is given as 91% and the “final HPLC purity” value is on record as 96%. In addition, the isolated yield in data set [1] (whole synthesis, overall, scale of the general procedure 0.1 mmol, 0.25 mmol, 0.5 mmol) was determined as 35%.
In data set [3], QPWSSMIPHEHSFLPSSYRGKDLQEN returned a crude mass of 366.14 mg. The crude yield in data set [1] (setting [4]) is reported as 35.6%.
For H-ILKEPVHGV-N(CH2CH2SH)2, in data set [1] (setting [4]), the “crude HPLC purity” value is on record as 80%, the “final HPLC purity” value amounted to 99% and the isolated yield stood at 27%.
